# Read-outs that look alike come from different tables or passages of the source. The campaign covered roughly 3,300 compounds. About 60 (2%) showed an effect of 50% or more. The list shows a part of the results.
# System: HCoV-OC43
# Design: species or system RD; HTS, protection from HCoV-OC43 induced cell death, luminescent cell viability (CellCounting-Lite 2.0), inhibition rate
# Conditions: 24 h post infection, 1 h compound pre-incubation, 10 µM, inhibitor
structure (smiles),measurement,setting,value
C[C@@H]1O[C@H]2O[C@H]3[C@@H](OC[C@H](O)[C@@H]3O)OC(=O)[C@]34CCC(C)(C)C[C@H]3C3=CC[C@@H]5[C@@]6(C)C[C@H](O)[C@H](O[C@@H]7O[C@H](CO)[C@@H](O)[C@H](O)[C@H]7O[C@@H]7OC[C@H](OC(=O)C[C@](C)(O)CC(=O)O[C@@H]1[C@@H](O[C@@H]1OC[C@@H](O)[C@H](O)[C@H]1O)[C@H]2O)[C@H](O)[C@H]7O)[C@@](C)(CO)[C@@H]6CC[C@@]5(C)[C@]3(C)C[C@H]4O [Tubeimoside II],OC43 Inhibition rate,,-2.8%
Cc1occc(=O)c1O [Maltol],OC43 Inhibition rate,,-0.1%
OCc1cccc2ccccc12 [1-Naphthalenemethanol],OC43 Inhibition rate,,2.9%
CC(C)=CCC[C@](C)(O[C@@H]1O[C@H](CO[C@@H]2OC[C@@H](O)[C@H](O)[C@H]2O)[C@@H](O)[C@H](O)[C@H]1O)[C@H]1CC[C@]2(C)[C@@H]1[C@H](O)C[C@@H]1[C@@]3(C)CC[C@H](O[C@@H]4O[C@H](CO)[C@@H](O)[C@H](O)[C@H]4O[C@@H]4O[C@H](CO)[C@@H](O)[C@H](O)[C@H]4O[C@@H]4OC[C@@H](O)[C@H](O)[C@H]4O)C(C)(C)[C@@H]3CC[C@]12C [Notoginsenoside Fc],OC43 Inhibition rate,,0%
C#C[C@]1(O)CC[C@H]2[C@@H]3CCc4cc(O)ccc4[C@H]3CC[C@@]21C [Ethynyl Estradiol],OC43 Inhibition rate,,0.2%
O=c1c2ccccc2nc2n1CC[C@@H]2O [Vasicinone],OC43 Inhibition rate,,-0.7%
O=C(O)Cc1ccc(O)cc1 [4-Hydroxyphenylacetic acid],OC43 Inhibition rate,,-0.7%
C[C@@H]1O[C@@H](Oc2cc(O)c3c(=O)c(O)c(-c4ccc(O)cc4)oc3c2O)[C@H](O)[C@H](O[C@H]2O[C@@H](CO)[C@H](O)[C@@H](O)[C@@H]2O)[C@H]1O [Rhodiosin],OC43 Inhibition rate,,-0.4%
C[C@@H]1O[C@@H](c2c(O)c([C@@H]3O[C@H](CO)[C@@H](O)[C@H](O)[C@H]3O)c3oc(-c4ccc(O)cc4)cc(=O)c3c2O)[C@H](O)[C@H](O)[C@H]1O [Isoviolanthin],OC43 Inhibition rate,,-0.2%
COc1cc2c(cc1OC)[C@@H]1Cc3ccc(OC)c(OC)c3CN1CC2 [Tetrahydropalmatine],OC43 Inhibition rate,"OC43 Inhibition rate, 24 h",3.1%
COc1cc2c(cc1OC)-c1c(C)c3ccc(OC)c(OC)c3c[n+]1CC2 [Dehydrocorydaline],OC43 Inhibition rate,"OC43 Inhibition rate, 24 h",3.1%
COc1ccc([C@@H]2CC(=O)c3c(O)cc(O[C@@H]4O[C@H](CO)[C@@H](O)[C@H](O)[C@H]4O[C@@H]4O[C@@H](C)[C@H](O)[C@@H](O)[C@H]4O)cc3O2)cc1 [Poncirin],OC43 Inhibition rate,,-0.1%
CC(C)(O)[C@@H]1CC[C@](C)([C@H]2[C@@H](O)C[C@@]3(C)[C@@H]4C[C@H](O[C@@H]5O[C@H](CO)[C@@H](O)[C@H](O)[C@H]5O)[C@H]5C(C)(C)[C@@H](O[C@@H]6OC[C@@H](O)[C@H](O)[C@H]6O[C@@H]6O[C@H](CO)[C@@H](O)[C@H](O)[C@H]6O)CC[C@@]56C[C@@]46CC[C@]23C)O1 [Astragaloside VI],OC43 Inhibition rate,,0%
COc1ccc2c(c1OC)O[C@H]1c3ccc(O[C@@H]4O[C@H](CO)[C@@H](O)[C@H](O)[C@H]4O)cc3OC[C@@H]21 [Methylnissolin-3-O-glucoside],OC43 Inhibition rate,,0.6%
COc1cc(/C=C/c2ccc(O)cc2)cc(OC)c1 [Pterostilbene],OC43 Inhibition rate,,12.2%
COc1cc(CN)ccc1O [Vanillylamine],OC43 Inhibition rate,,-0.1%
COc1cc2oc(=O)ccc2cc1CC=C(C)C [Suberosin],OC43 Inhibition rate,,9.9%
COc1ccc(/C=C\c2cc(OC)c(OC)c(OC)c2)cc1O [Combretastatin A4],OC43 Inhibition rate,,0.3%
O=CC[C@H](O)[C@H](O)CO [Thyminose],OC43 Inhibition rate,,-0.3%
CCCCC(CC)COC(=O)C=Cc1ccc(OC)cc1 (centres unmarked) [Octinoxate],OC43 Inhibition rate,,5.8%
CC(C)=CCC[C@](C)(O[C@@H]1O[C@H](CO)[C@@H](O)[C@H](O)[C@H]1O)[C@H]1CC[C@]2(C)[C@@H]1[C@H](O)C[C@@H]1[C@@]3(C)CC[C@H](O)C(C)(C)[C@@H]3[C@@H](O[C@@H]3O[C@H](CO)[C@@H](O)[C@H](O)[C@H]3O[C@@H]3OC[C@@H](O)[C@H](O)[C@H]3O)C[C@]12C [Notoginsenoside R1],OC43 Inhibition rate,,0.5%
O=c1c(O)c(-c2ccc(O)cc2)oc2c(O)c(O)cc(O)c12 [Herbacetin],OC43 Inhibition rate,,0.7%
OCc1ccccc1 [Benzyl alcohol],OC43 Inhibition rate,,-0.1%
CCC1=C[C@@H]2CN(C1)Cc1c([nH]c3ccccc13)[C@@](C(=O)OC)(c1cc3c(cc1OC)N(C)[C@H]1[C@@](O)(C(=O)OC)[C@H](OC(C)=O)[C@]4(CC)C=CCN5CC[C@]31[C@@H]54)C2 [Vinorelbine (ditartrate)],OC43 Inhibition rate,,18.3%
C[C@H](N)C(=O)O [L-Alanine],OC43 Inhibition rate,,0.4%
"C/C=C(/C)C(=O)OC(C)(C)[C@@H]1Cc2c(ccc3ccc(=O)oc23)O1 [Columbianadin, columbianadin]",OC43 Inhibition rate,,107.6%
COc1ccc(C(=O)O)cc1 [p-Anisic acid],OC43 Inhibition rate,,-0.4%
CCOC(=O)CCC(=O)O[C@H]1[C@H](O[C@@H]2[C@@H](C)[C@H](O[C@H]3C[C@@](C)(OC)[C@@H](O)[C@H](C)O3)[C@@H](C)C(=O)O[C@H](CC)[C@@](C)(O)[C@H](O)[C@@H](C)C(=O)[C@H](C)C[C@@]2(C)O)O[C@H](C)C[C@@H]1N(C)C [Erythromycin Ethylsuccinate],OC43 Inhibition rate,,0.4%
COC(=O)C1=CO[C@@H](C)[C@@H]2CN3CC[C@@]4(C(=O)Nc5ccccc54)[C@@H]3C[C@H]12 [Isopteropodine],OC43 Inhibition rate,,6.4%
C[C@@H]1CCC=C2C(=O)C[C@H]3OOC(C)(C)[C@H]3[C@]21C [Nardosinone],OC43 Inhibition rate,,5.6%
COC1[C@H](O)[C@@H](O)C(O)[C@H](O)[C@H]1O (stereo partly drawn) [L-Quebrachitol],OC43 Inhibition rate,,-2.1%
COc1c(C(C)C)cc2c(c1O)[C@@]1(C(=O)O)CCCC(C)(C)[C@@H]1CC2 [12-O-Methylcarnosic acid],OC43 Inhibition rate,,54.1%

# As a short view, part of the list above:
structure (smiles),measurement,setting,value
COc1ccc([C@@H]2CC(=O)c3c(O)cc(O[C@@H]4O[C@H](CO)[C@@H](O)[C@H](O)[C@H]4O[C@@H]4O[C@@H](C)[C@H](O)[C@@H](O)[C@H]4O)cc3O2)cc1 [Poncirin],OC43 Inhibition rate,,-0.1%
CC(C)(O)[C@@H]1CC[C@](C)([C@H]2[C@@H](O)C[C@@]3(C)[C@@H]4C[C@H](O[C@@H]5O[C@H](CO)[C@@H](O)[C@H](O)[C@H]5O)[C@H]5C(C)(C)[C@@H](O[C@@H]6OC[C@@H](O)[C@H](O)[C@H]6O[C@@H]6O[C@H](CO)[C@@H](O)[C@H](O)[C@H]6O)CC[C@@]56C[C@@]46CC[C@]23C)O1 [Astragaloside VI],OC43 Inhibition rate,,0%

# — paper PMC12431657, “Discovery and mechanistic insights of dibenzoylmethane as a broad spectrum inhibitor of coronavirus” (PLOS Pathogens, 2025)
